Experimental data reported in PubChem BioAssay AID248 (DTP/NCI, 2004).
The list shows only some results of the screen, not a fair sample: it is rich in T/C values a quarter to a half above the control, in often repeated tests (any T/C) and in doses without a T/C. Further doses and runs are listed elsewhere. T/C gives the treated animals as a percentage of the vehicle group. Some entries give survivors of the animals treated and no T/C: the source files T/C as zero there, which appears to mark a toxic dose or a test without result, not a measured value. Some doses without a T/C left all or most animals alive at the check, yet need not have been tolerated: the source hardly ever lists a survival T/C far under the control, and the zero likely stands for such cases as well. Survivors were counted at the toxicity check, usually on the fifth day, unless a day is given; later deaths do not show. Schedules are NCI's codes, taken here to give the interval after Q, in days (D) or hours (H), and the number of doses after X. Where survival is the endpoint, the PubChem record calls one and a half times the control and up active, and a quarter to a half above the control has no call in these data; cut-offs in other NCI protocols can differ. Some entries were tested several times; the values are given in rising order. Some schedule codes hold Z or #, which are not explained here. Some T/C values are followed by the survivors on the day toxicity was checked, most often the fifth; without a count, all were alive then.

System: L1210 leukemia ip in BDF1 mice, survival T/C
Test: NCI In Vivo Anticancer Drug Screen. Data for tumor model L1210 Leukemia (intraperitoneal) in B6D2F1 (BDF1) mice
Conditions: T/C endpoint: mean survival time, higher T/C = longer survival
[1] = dose: 400.0 mg/kg/injection, schedule: Q01DX001 (ip), vehicle: carboxymethylcellulose (CMC)

In the case of `Nc1nc(SSc2nc(N)nc3c2ncn3C2CC(O)C(CO)O2)c2ncn(C3CC(O)C(CO)O3)c2n1` (stereo not drawn), the T/C (dose: 0.25 mg/kg/injection, schedule: Q01DX009 (ip), vehicle: saline) is reported as 132 % of control, the T/C (dose: 0.5 mg/kg/injection, schedule: Q01DX009 (ip), vehicle: saline) is reported as 141 % of control and the T/C (dose: 150.0 mg/kg/injection, schedule: Q01DX001 (ip), vehicle: saline) is reported as 132 % of control. The T/C (dose: 178.0 mg/kg/injection, schedule: Q01DX001 (ip), vehicle: saline) was 138 and 146 % of control, the T/C (dose: 267.0 mg/kg/injection, schedule: Q01DX001 (ip), vehicle: saline) was 127 % of control and the T/C (dose: 300.0 mg/kg/injection, schedule: Q01DX001 (ip), vehicle: saline) was 126 % of control. The survivor count (dose: 400.0 mg/kg/injection, schedule: Q01DX009 (ip), vehicle: saline) was 6 of 6 and the T/C (dose: 600.0 mg/kg/injection, schedule: Q01DX001 (ip), vehicle: saline) was 145 % of control.
With `CCC[CH2][Sn]([CH2]CCC)([CH2]CCC)[O]C(=O)CC[S][Sn]([CH2]CCC)([CH2]CCC)[CH2]CCC` the survivor count (dose: 8.0 mg/kg/injection, schedule: Q01DX015 (ip), vehicle: saline) was 4 of 6, the survivor count (dose: 12.5 mg/kg/injection, schedule: Q01DX001 (ip), vehicle: saline) was 2 of 4 and the survivor count (dose: 16.0 mg/kg/injection, schedule: Q01DX015 (ip), vehicle: saline) was 0 of 6. For the same compound, the survivor count (dose: 25.0 mg/kg/injection, schedule: Q01DX001 (ip), vehicle: saline) was 0 of 4, the survivor count (dose: 32.0 mg/kg/injection, schedule: Q01DX015 (ip), vehicle: saline) was 0 of 6 and the survivor count (dose: 50.0 mg/kg/injection, schedule: Q01DX001 (ip), vehicle: saline) was 0 of 4. For the same compound, the survivor count (dose: 64.0 mg/kg/injection, schedule: Q01DX015 (ip), vehicle: saline) was 0 of 6, the survivor count (dose: 100.0 mg/kg/injection, schedule: Q01DX001 (ip), vehicle: saline) was 0 of 4 and the survivor count (dose: 128.0 mg/kg/injection, schedule: Q01DX015 (ip), vehicle: saline) was 0 of 6.
`Nc1cc(=O)[nH][nH]1` was tested, and the T/C (dose: 450.0 mg/kg/injection, schedule: Q01DX Z (ip), vehicle: saline) was 137 % of control [5 of 6 alive] and the T/C (dose: 675.0 mg/kg/injection, schedule: Q01DX Z (ip), vehicle: carboxymethylcellulose (CMC)) was 129 % of control.
In the case of `c1coc(-c2ncnc3c2Cc2ccccc2-3)c1`, the survivor count (dose: 12.5 mg/kg/injection, schedule: Q04DX003 (ip), vehicle: Klucel (hydroxypropylcellulose) (HPC)) is reported as 6 of 6, the survivor count (dose: 150.0 mg/kg/injection, schedule: Q01DX009 (ip), vehicle: Klucel (hydroxypropylcellulose) (HPC)) is reported as 6 of 6 and the survivor count (dose: 200.0 mg/kg/injection, schedule: Q04DX003 (ip), vehicle: Klucel (hydroxypropylcellulose) (HPC)) is reported as 3 of 6. The survivor count (dose: 225.0 mg/kg/injection, schedule: Q01DX009 (ip), vehicle: Klucel (hydroxypropylcellulose) (HPC)) was 6 of 6, the survivor count (dose: 335.0 mg/kg/injection, schedule: Q01DX009 (ip), vehicle: Klucel (hydroxypropylcellulose) (HPC)) was 1 of 6 and the survivor count (dose: 400.0 mg/kg/injection, schedule: Q04DX003 (ip), vehicle: Klucel (hydroxypropylcellulose) (HPC)) was 0 of 6.
`OC(c1cc(-c2cccc(Cl)c2)nc2ccccc12)C1CCCCN1` (stereo not drawn) was tested, and the survivor count [1] was 0 of 4.
With `O=C(CSc1cc(Cl)ccc1Cl)Nc1cccc(Br)c1` the survivor count (dose: 200.0 mg/kg/injection, schedule: Q04DX003 (ip), vehicle: other) was 5 of 6.
`CN1C2CC(=O)CC1C1CCC2C1` was tested, and the survivor count (dose: 60.0 mg/kg/injection, schedule: Q01DX001 (ip), vehicle: carboxymethylcellulose (CMC)) was 2 of 6, the survivor count (dose: 75.0 mg/kg/injection, schedule: Q01DX001 (ip), vehicle: carboxymethylcellulose (CMC)) was 0 of 6 and the survivor count (dose: 150.0 mg/kg/injection, schedule: Q01DX001 (ip), vehicle: carboxymethylcellulose (CMC)) was 0 of 6. For the same compound, the survivor count (dose: 300.0 mg/kg/injection, schedule: Q01DX001 (ip), vehicle: carboxymethylcellulose (CMC)) was 0 of 6.
In the case of `CC/C(=N/Nc1ccc([N+](=O)[O-])cc1[N+](=O)[O-])c1cccs1`, the survivor count [1] is reported as 3 of 4.
For `CC(=O)C(CCC#N)(CCC#N)c1ccccc1`, the survivor count (dose: 200.0 mg/kg/injection, schedule: Q04DX002 (ip), vehicle: Klucel (hydroxypropylcellulose) (HPC)) was 3 of 3.
